Data source: PubChem BioAssay AID504786 (Drosophila RNAi Screening Center, 2011)
Purpose: 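Positive regulators of HIF-driven reporter output in Drosophila cells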 (primary screen). Cell system: Drosophila S2 cells with a stable HIF luciferase reporter. Knock-down reagent: long dsRNA against Drosophila genes, about 0.2 µg dsRNA per well of a 384-well plate. Duration: three days of knock-down, then 20 h of DFO before reading. Treatment: desferrioxamine (DFO) at 100 µM, an iron chelator that mimics hypoxia, for 20 h. Measured: 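Firefly luciferase driven by the mouse ldh-a hypoxia-response element, measured after 20 h of 100 µM DFO; z-scores per plate, higher means more signal lost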. Direction: z-score: higher = stronger loss of HIF reporter signal.
The deposit covers about 21,000 reagents; shown is an unselected part of those with a known target gene and a result. 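Primary screen; positive scores mean lost reporter signal, so the sign may be inverted from the usual convention.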 Further read-outs or replicates are left out here.

For l(3)neo43 [DRSC14988], how do the results read?
z-score, replicate 1: 0

With Top3beta [DRSC18724], what does the deposit list?
z-score, replicate 1: -0.3

What is on record for edin [DRSC09488]?
z-score, replicate 1: -0.5

With Mlc2 [DRSC16741], what was measured?
z-score, replicate 1: -0.3

What is on record for CG17571 [DRSC01768]?
z-score, replicate 1: 0

With CG17571 [DRSC03755], what does the deposit list?
z-score, replicate 1: -0.4

With CG14270 [DRSC17913], how do the results read?
z-score, replicate 1: -0.2

With SmydA-4 [DRSC19390], how do the results read?
z-score, replicate 1: -0.3

With CG2111 [DRSC18205], how do the results read?
z-score, replicate 1: -0.3

Which result is listed for prg [DRSC03324]?
z-score, replicate 1: 0

Which result is listed for Cbs [DRSC20553]?
z-score, replicate 1: -0.3

With Ebp [DRSC04048], what does the deposit list?
z-score, replicate 1: -0.2

With pr [DRSC03596], what does the deposit list?
z-score, replicate 1: -0.4

What is on record for Droj2 [DRSC16450]?
z-score, replicate 1: 0.7

With CG33642 [DRSC01325], what was measured?
z-score, replicate 1: 0.1

With CG14491 [DRSC06462], what does the deposit list?
z-score, replicate 1: -0.3

Which result is listed for CG3448 [DRSC10368]?
z-score, replicate 1: -0.3

With CG31735 [DRSC01518], how do the results read?
z-score, replicate 1: 0

For Acp29AB [DRSC01857], how do the results read?
z-score, replicate 1: 0.7

For ClpP [DRSC02806], what was measured?
z-score, replicate 1: -0.4

With sty [DRSC08737], how do the results read?
z-score, replicate 1: -0.5

How did the screen score CG9444 [DRSC16493]?
z-score, replicate 1: -0.3

Which result is listed for iotaTry [DRSC07634]?
z-score, replicate 1: -0.1

Which result is listed for Spn28Da [DRSC02162]?
z-score, replicate 1: -0.2

What did the screen give for CG11262 [DRSC09831]?
z-score, replicate 1: -0.3

For pad [DRSC14227], what was measured?
z-score, replicate 1: -0.4

Which result is listed for Or94a [DRSC16772]?
z-score, replicate 1: -0.1

With CG14275 [DRSC02379], what was measured?
z-score, replicate 1: -0.3

For CG34203 [DRSC03855], how do the results read?
z-score, replicate 1: -0.3

For CG3527 [DRSC18307], what does the deposit list?
z-score, replicate 1: -0.1

With CG13488 [DRSC04133], what was measured?
z-score, replicate 1: -0.2

With CG14478 [DRSC06450], what was measured?
z-score, replicate 1: -0.3

With CG1368 [DRSC19537], what was measured?
z-score, replicate 1: -0.4

Which result is listed for CG13064 [DRSC09947]?
z-score, replicate 1: -0.3

For CG14861 [DRSC14984], what does the deposit list?
z-score, replicate 1: -0.2

With corto [DRSC12375], what was measured?
z-score, replicate 1: -0.3

For CG9775 [DRSC12330], how do the results read?
z-score, replicate 1: -0.3

Which result is listed for mRpL51 [DRSC02200]?
z-score, replicate 1: 1.5

With CG1998 [DRSC19829], what does the deposit list?
z-score, replicate 1: -0.1

For CG5535 [DRSC10514], what does the deposit list?
z-score, replicate 1: -0.2

Sorted by “z-score, replicate 1” (ascending): some entries from above
CG17571 [DRSC03755]: z-score, replicate 1 = -0.4
CG14270 [DRSC17913]: z-score, replicate 1 = -0.2
CG17571 [DRSC01768]: z-score, replicate 1 = 0
